Data taken from ChEMBL document CHEMBL3988442, “University of Dundee, Small-Polar-MMV Screening Library” (2021).

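Whole-parasite assay of Trypanosoma brucei over 72 hours; the read-out is not stated. Compounds at 30 µM. The record gives no direction; compounds that gave an IC50 in retests scored well above the rest, so higher reads as stronger inhibition. Values scatter widely below zero; nearly all retest evidence comes from the higher of the two concentrations used. Size under these conditions: about 64,000 compounds, about 940 of them at 50% or above in at least one test.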

Each number is a percent effect as filed.
The controls that fix the scale are not given in the record; negative values are as filed.
This is an unselected part of the compounds tested.

COc1c(CNCCNC(=O)c2cccs2)c(C)nn1C gave -1.741%.
NC(=O)c1cc(CC2CCCN(c3cnccn3)C2)ncn1 (stereo not drawn) gave 12.85%.
CCN1CCC(N2C[C@@H](C(=O)O)[C@H](c3cccc(OC)c3)C2)CC1 gave -1.22%.
COc1ccc(C2=CCN(C(=O)CN(C)CC(C)C#N)CC2)cc1 (stereo not drawn) gave 19.76%.
O=C(O)C(F)(F)F.[H][C@@]12CN(Cc3ccco3)CCC[C@]1(C(=O)O)CN(c1ncc(C)cn1)C2 gave 10.94%.
Cn1ncc(N2CCOC(CCNC(=O)CO)C2)cc1=O (stereo not drawn) gave -43.34%.
c1ccc(Cn2cccn2)c(CN2CCC3(CCCNC3)C2)c1 (stereo not drawn) gave 10.96%.
N#Cc1ccc(S(=O)(=O)NC(=O)c2ccc3c(c2)COC3)cc1 gave -39.94%.
CCNC(=O)[C@@H]1C[C@H](NC(=O)c2ccc(C)s2)CN1Cc1ccc(C)o1 gave -24.15%.
O=C(O)C(F)(F)F.O=C1NC2(CCN(CCO)CC2)CC1c1ccccc1 (stereo not drawn) gave -20.89%.
O=C(O)C1c2nc[nH]c2CCN1Cc1ccc(-c2ccccc2)s1 (stereo not drawn) gave -111.4%.
Cn1ncc2c1CCCN(C(=O)C1CCC1)C2 gave -12.05%.
Cc1cc(C(=O)N2CCC3(CCN3Cc3ccc(F)cc3)C2)no1.O=C(O)C(F)(F)F (stereo not drawn) gave -0.2886%.
[H][C@]12CC[C@]([H])(CN(Cc3ncc[nH]3)C1)N(Cc1c(C)noc1C)C2=O gave -14.1%.
CCNC(c1ccc(Cl)cc1)c1cccnc1 (stereo not drawn) gave -21.16%.
c1ncn(CC2CCCN(CC3CCCCC3)C2)n1 (stereo not drawn) gave -10.67%.
Cc1noc(CNC(=O)C(C)(C)NC(=O)OC(C)(C)C)n1 gave -14.8%.
[H][C@]12CCN(Cc3ccncc3)C(=O)[C@]1([H])CN(CC)C2 gave 8.092%.
O=C(CN1CCCCC1Cn1cncn1)NCCC1=CCCCC1 (stereo not drawn) gave -66.15%.
O=C(NCCC1COc2ccccc2O1)c1ccc(-c2cc[nH]n2)nc1 (stereo not drawn) gave 51.23%.
Nc1nc(C2CCN(C(=O)c3cscn3)CC2)cs1 gave -0.7427%.
O=S(=O)(Cc1ccccc1Cl)NC(CO)c1ccco1 (stereo not drawn) gave -7.3%.
CC(C)n1cnnc1CN(C)Cc1ccoc1 gave -0.761%.
CC1(C)Oc2ccc(NC(=O)c3ccc(=O)[nH]n3)cc2O1 gave 11.21%.
O=C(CCN1CCOC(C(F)(F)F)C1)NCc1cccc(Cl)c1 (stereo not drawn) gave -23.72%.
CCN(C)c1ncnc2c1CCN(C(=O)c1cccn1C)CC2 gave -24.46%.
CN(Cc1nnc(C2CC2)o1)C(c1ccc(F)cc1)c1cccnc1 (stereo not drawn) gave -93.52%.
CN(Cc1cn2c(n1)CN(CC1CCOC1)CC2)Cc1ccco1.O=C(O)C(F)(F)F.O=C(O)C(F)(F)F (stereo not drawn) gave -30.56%.
[H][C@]12CCN(S(=O)(=O)c3cccc(C)c3)[C@@]1([H])CC[C@@H](COC)O2 gave -25.12%.
O=C(O)C(F)(F)F.[H][C@@]12CN(Cc3cnn(C)c3)CCC[C@]1(C(=O)O)CN(c1ncccn1)C2 gave 32.1%.
COCCOc1ccccc1NC(C)C(=O)NC(=O)NC(C)(C)C (stereo not drawn) gave 17.75%.
Cc1ccc(OCC(=O)NS(=O)(=O)Cc2ccccc2)cc1 gave -5.641%.
CCc1[nH]ncc1C(=O)N1CCCC(n2cc(C)cn2)C1 (stereo not drawn) gave -17.7%.
O=c1n(CCSCc2ccccc2Br)nc2ccccn12 gave 3.302%.

Once more, the final 4:

| SMILES | percent effect |
|---|---|
| `COCCOc1ccccc1NC(C)C(=O)NC(=O)NC(C)(C)C` (stereo not drawn) | 17.75 |
| `Cc1ccc(OCC(=O)NS(=O)(=O)Cc2ccccc2)cc1` | -5.641 |
| `CCc1[nH]ncc1C(=O)N1CCCC(n2cc(C)cn2)C1` (stereo not drawn) | -17.7 |
| `O=c1n(CCSCc2ccccc2Br)nc2ccccn12` | 3.302 |